# For at least one compound, name, drawing or mass did not settle the structure.
# Tested on: women
# Assay: Effect of one intake of levonorgestrel within different stages of the menstrual cycle on women pregnancies
# Type: in vivo
# Method: 1,117 women (aged 24.9+/−6.5 years) received levonorgestrel (1.5 mg) in form of a single oral tablet during different stages of their menstrual cycle.
# The reference (day 0) is the ovulation. The fertile period extends from five days before the ovulation to one day after the ovulation.
smiles,measurement,setting,value
"C#C[C@]1(O)CC[C@H]2[C@@H]3CCC4=CC(=O)CC[C@@H]4[C@H]3CC[C@@]21CC [levonorgestrel, D-(−)-ethyl-13β ethynyl-17α hydroxy-17 gonene-4 one-3]",effect on development of the ovocyte and ovulation,administered to women at an early stage of the menstrual cycle,blocks the development of the ovocyte and consequently prevents ovulation
same,pregnancy observed,women who have taken levonorgestrel at least five days before ovulation,No pregnancy was observed

# — US20130090318A1, “ONCE-A-MONTH METHOD OF CONTRACEPTION” (LABORATOIRE HRA-PHARMA, priority 2010, published 2013)
